Consider one molecule from paper doi:10.1101/2020.07.25.220095.

Protein sequences, listed by entry. Tags and fused reporters are not part of them.
UniProt P38697: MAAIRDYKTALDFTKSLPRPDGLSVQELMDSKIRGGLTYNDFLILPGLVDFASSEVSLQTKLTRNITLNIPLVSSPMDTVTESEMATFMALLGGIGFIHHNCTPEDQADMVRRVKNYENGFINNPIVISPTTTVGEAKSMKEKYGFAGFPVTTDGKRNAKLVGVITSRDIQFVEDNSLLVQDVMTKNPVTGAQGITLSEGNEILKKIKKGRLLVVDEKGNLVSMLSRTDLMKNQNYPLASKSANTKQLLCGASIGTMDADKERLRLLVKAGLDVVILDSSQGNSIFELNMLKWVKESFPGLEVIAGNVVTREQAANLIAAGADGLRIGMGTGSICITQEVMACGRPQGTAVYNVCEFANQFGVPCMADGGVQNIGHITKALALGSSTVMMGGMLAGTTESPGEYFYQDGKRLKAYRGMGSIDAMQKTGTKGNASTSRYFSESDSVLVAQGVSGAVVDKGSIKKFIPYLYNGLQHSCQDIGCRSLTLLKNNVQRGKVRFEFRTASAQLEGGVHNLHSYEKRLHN

What all share (experiment): pull-down
In assay [1] the target is T1, Nrd1 (TAP-tagged version) (S. cerevisiae (TAP-tagged yeast strain)) (UniProt P53617).
T1 sequence: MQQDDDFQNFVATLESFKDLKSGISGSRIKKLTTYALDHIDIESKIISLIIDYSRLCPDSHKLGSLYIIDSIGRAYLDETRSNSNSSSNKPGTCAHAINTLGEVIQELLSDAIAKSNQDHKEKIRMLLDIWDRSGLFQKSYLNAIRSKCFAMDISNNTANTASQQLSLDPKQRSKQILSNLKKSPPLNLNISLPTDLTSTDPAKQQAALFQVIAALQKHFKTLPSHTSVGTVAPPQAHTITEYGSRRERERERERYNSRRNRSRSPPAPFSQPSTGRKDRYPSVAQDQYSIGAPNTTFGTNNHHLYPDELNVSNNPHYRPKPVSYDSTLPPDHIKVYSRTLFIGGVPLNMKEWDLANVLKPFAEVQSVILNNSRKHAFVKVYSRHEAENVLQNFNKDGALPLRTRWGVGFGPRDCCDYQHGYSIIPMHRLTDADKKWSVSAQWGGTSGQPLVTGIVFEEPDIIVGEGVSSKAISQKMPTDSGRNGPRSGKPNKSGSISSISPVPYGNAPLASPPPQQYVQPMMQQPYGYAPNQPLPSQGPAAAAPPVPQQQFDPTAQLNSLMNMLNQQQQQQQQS

Assay [2] deals with T2, Puf5 (TAP-tagged version) (S. cerevisiae (TAP-tagged yeast strain)) (UniProt P39016).
T2 sequence: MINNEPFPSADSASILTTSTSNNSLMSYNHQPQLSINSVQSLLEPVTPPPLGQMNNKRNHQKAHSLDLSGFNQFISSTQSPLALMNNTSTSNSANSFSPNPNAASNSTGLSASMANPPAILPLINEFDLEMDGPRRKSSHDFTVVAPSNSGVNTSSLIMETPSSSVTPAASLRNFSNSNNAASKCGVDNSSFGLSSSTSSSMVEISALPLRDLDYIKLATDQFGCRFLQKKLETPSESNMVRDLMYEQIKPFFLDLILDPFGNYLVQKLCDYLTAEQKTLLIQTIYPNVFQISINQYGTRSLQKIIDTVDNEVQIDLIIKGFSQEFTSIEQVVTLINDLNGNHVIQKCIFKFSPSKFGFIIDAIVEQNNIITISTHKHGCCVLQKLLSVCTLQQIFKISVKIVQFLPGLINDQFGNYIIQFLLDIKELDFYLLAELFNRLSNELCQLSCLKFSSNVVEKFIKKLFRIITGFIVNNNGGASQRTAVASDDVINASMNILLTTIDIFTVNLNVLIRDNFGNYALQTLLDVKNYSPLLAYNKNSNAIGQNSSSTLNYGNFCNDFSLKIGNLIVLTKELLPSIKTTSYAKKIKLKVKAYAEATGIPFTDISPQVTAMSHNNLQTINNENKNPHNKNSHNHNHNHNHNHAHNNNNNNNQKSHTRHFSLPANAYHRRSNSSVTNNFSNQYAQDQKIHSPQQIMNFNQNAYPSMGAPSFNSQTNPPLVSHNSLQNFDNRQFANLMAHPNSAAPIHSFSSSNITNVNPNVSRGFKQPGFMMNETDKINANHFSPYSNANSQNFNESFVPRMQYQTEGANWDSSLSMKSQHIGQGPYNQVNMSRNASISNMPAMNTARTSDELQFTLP

The target in assay [3] is Imd2-TAP (S. cerevisiae (TAP-tagged yeast strain)) (UniProt P38697).
In assay [4] the target is T3, Puf3-TAP (S. cerevisiae (TAP-tagged yeast strain)) (UniProt Q07807).
T3 sequence: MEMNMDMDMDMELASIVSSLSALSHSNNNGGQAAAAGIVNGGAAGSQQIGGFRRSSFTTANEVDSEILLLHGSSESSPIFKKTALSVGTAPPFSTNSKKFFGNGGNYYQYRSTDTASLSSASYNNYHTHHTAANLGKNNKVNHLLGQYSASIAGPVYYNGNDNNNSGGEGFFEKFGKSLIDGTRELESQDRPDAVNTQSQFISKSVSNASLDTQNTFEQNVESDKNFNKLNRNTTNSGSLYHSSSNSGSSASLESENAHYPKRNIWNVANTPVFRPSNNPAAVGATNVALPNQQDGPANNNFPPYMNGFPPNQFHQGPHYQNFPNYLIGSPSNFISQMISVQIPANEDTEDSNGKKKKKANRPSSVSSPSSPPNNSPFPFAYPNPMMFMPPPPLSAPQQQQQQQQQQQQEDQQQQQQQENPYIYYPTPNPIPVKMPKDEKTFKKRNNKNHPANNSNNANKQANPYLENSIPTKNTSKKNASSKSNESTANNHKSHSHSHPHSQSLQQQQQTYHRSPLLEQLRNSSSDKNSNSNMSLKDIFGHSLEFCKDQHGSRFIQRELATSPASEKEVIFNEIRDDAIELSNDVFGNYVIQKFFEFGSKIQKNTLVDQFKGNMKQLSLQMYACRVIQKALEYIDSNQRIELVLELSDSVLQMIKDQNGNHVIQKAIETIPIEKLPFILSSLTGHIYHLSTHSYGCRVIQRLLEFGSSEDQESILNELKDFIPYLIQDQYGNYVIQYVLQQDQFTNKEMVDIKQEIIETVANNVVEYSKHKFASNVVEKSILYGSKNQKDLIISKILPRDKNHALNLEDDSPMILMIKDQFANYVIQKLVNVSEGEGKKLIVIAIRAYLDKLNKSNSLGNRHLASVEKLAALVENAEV

No constants are given. Whether binding was seen depends on the method and setting. In cells and extracts the contact can be indirect. Some binding calls cover weakened binding; strength is not graded here. For some of these results: Sequences can lack the tags named with a protein.

B1: Rpb4 (protein, UniProt P20433 1-221)
chain: MNVSTSTFQTRRRRLKKVEEEENAATLQLGQEFQLKQINHQGEEEELIALNLSEARLVIKEALVERRRAFKRSQKKHKKKHLKHENANDETTAVEDEDDDLDEDDVNADDDDFMHSETREKELESIDVLLEQTTGGNNKDLKNTMQYLTNFSRFRDQETVGAVIQLLKSTGLHPFEVAQLGSLACDTADEAKTLIPSLNNKISDDELERILKELSNLETLY
On to B1, for which the binding result is “no binding” in assay [1], “no binding” in assay [2], “no binding” in assay [3] and “binds weakly” in assay [4].
